From the supplement of paper PMC3682954
Values joined by “and” are separate entries in the source; they are usually repeats but may differ in a detail not shown here. Equal values may be shown once. Where a name gives a salt, the structure may show the parent alone. ± gives the standard deviation of the averaged measurements. This is one part of the list. Many values rest on one well or one pass, so single values are uncertain.

Test system: RAW 264.7
Experiment: HMGB1-induced TNF-alpha production relative to HMGB1-stimulated control; higher = more TNF-alpha secretion (less inhibition)
Conditions: stimulus: HMGB1 5 ug/ml, 18 h
[1] = compound concentration: 1 ug/ml

SMILES	HMGB1-induced TNF-alpha production (compound concentration: 3 uM)	HMGB1-induced TNF-alpha production [1]
Cn1c(CCCC(=O)O)nc2cc(N(CCCl)CCCl)ccc21 [Bendamustine hydrochloride]	101%	
CN(C)Cc1c[nH]c2c(OCc3ccccc3)cccc12 [7-Benzyloxygramine]		104%
Oc1ccc2c3c1O[C@H]1c4[nH]c5ccccc5c4C[C@@]4(O)[C@@H](C2)N(CC2CC2)CC[C@]314 [Naltrindole]	102 ± 6.2%	
Oc1ccc2c3c1O[C@H]1c4[nH]c5ccccc5c4C[C@@]4(O)[C@@H](C2)N(CC2CC2)CC[C@]314 [Naltrindole hydrochloride]	113%	
O=C(O)CCCO	90.3%	
N[C@]1(C(=O)O)CC[C@H](C(=O)O)C1 (racemic) [trans-(±)-ACPD]	87.7%	
CC(NC(C)(C)C)C(=O)c1cccc(Cl)c1 (centres undefined)	98.6% and 95.8% and 75%	
CC(NC(C)(C)C)C(=O)c1cccc(Cl)c1 (centres undefined) [Amfebutamone]	105%	
CC(NC(C)(C)C)C(=O)c1cccc(Cl)c1 (centres undefined) [Bupropion hydrochloride]	81.19 ± 0.62%	
CN1CCC2(C)c3cc(O)ccc3N(C)C12 (single isomer, unassigned; (-)) [(-)-Eseroline fumarate salt]	140%	
CN1CCC2(C)c3cc(O)ccc3N(C)C12 (single isomer, unassigned; (-)) [(-)-Eseroline, Fumarate salt]		61.6%
NCC(CC(=O)O)c1ccc(Cl)cc1 (centres undefined)	86.2%	
CN1CC[C@@]2(C)c3cc(O)ccc3N(C)C12 (single isomer, unassigned; (-)) [(-)-Eseroline fumarate]	87.8%	91%
CC(C)[C@]12O[C@H]1[C@@H]1O[C@]13[C@]1(O[C@H]1C[C@H]1C4=C(CC[C@@]13C)C(=O)OC4)[C@@H]2O	0.053%	
CC(=O)[C@H]1CC[C@H]2[C@@H]3CC[C@H]4C[C@H](O)CC[C@]4(C)[C@H]3CC[C@]12C [5alpha-Pregnan-3alpha-ol-20-one]	95.7%	
C=CCSSCC=C	107%	
CC(C)[N+](C)(CCC(C(N)=O)(c1ccccc1)c1ccccc1)C(C)C	111%	
CC(C)[N+](C)(CCC(C(N)=O)(c1ccccc1)c1ccccc1)C(C)C [Isopropamide iodide]	102%	
C#C[C@]1(O)CC[C@H]2[C@@H]3CCC4=CC(=O)CC[C@]4(C)[C@H]3CC[C@@]21C [Ethisterone]	80 ± 8.7%	
C#C[C@]1(O)CC[C@H]2[C@@H]3CCC4=CC(=O)CC[C@]4(C)[C@H]3CC[C@@]21C	98.6%	
COP(=S)(OC)Oc1ccc(SC)c(C)c1	57.9%	
O=c1[nH]c2ccccc2n1CCCN1CCC(n2c(=O)[nH]c3cc(Cl)ccc32)CC1 [Domperidone]	85.4 ± 28%	

Some of the entries so far, with bars between the fields.
SMILES | HMGB1-induced TNF-alpha production (compound concentration: 3 uM) | HMGB1-induced TNF-alpha production [1]
N[C@]1(C(=O)O)CC[C@H](C(=O)O)C1 (racemic) [trans-(±)-ACPD] | 87.7% | 
CC(NC(C)(C)C)C(=O)c1cccc(Cl)c1 (centres undefined) | 98.6% and 95.8% and 75% | 
CC(NC(C)(C)C)C(=O)c1cccc(Cl)c1 (centres undefined) [Amfebutamone] | 105% | 
CC(NC(C)(C)C)C(=O)c1cccc(Cl)c1 (centres undefined) [Bupropion hydrochloride] | 81.19 ± 0.62% | 
CN1CCC2(C)c3cc(O)ccc3N(C)C12 (single isomer, unassigned; (-)) [(-)-Eseroline fumarate salt] | 140% | 
CN1CCC2(C)c3cc(O)ccc3N(C)C12 (single isomer, unassigned; (-)) [(-)-Eseroline, Fumarate salt] |  | 61.6%
NCC(CC(=O)O)c1ccc(Cl)cc1 (centres undefined) | 86.2% | 
CN1CC[C@@]2(C)c3cc(O)ccc3N(C)C12 (single isomer, unassigned; (-)) [(-)-Eseroline fumarate] | 87.8% | 91%
CC(C)[C@]12O[C@H]1[C@@H]1O[C@]13[C@]1(O[C@H]1C[C@H]1C4=C(CC[C@@]13C)C(=O)OC4)[C@@H]2O | 0.053% | 

The list goes on.

SMILES	HMGB1-induced TNF-alpha production (compound concentration: 3 uM)	HMGB1-induced TNF-alpha production [1]
O=C([O-])c1ccccc1-c1c2cc(Br)c(=O)cc-2oc2[c]([Hg+])c([O-])c(Br)cc12.[Na+].[Na+].[OH-] [Merbromin]	83.1%	
O=C([O-])c1ccccc1-c1c2cc(Br)c(=O)cc-2oc2[c]([Hg+])c([O-])c(Br)cc12.[Na+].[Na+].[OH-]	86.9%	
COc1ccc(CC2c3cc(OC)c(OC)cc3CCN2C)cc1OC (centres undefined) [Laudanosine]		75.5%
C=CCN1CC[C@]23c4c5ccc(O)c4O[C@H]2/C(=N/NC(=O)c2ccccc2)CC[C@@]3(O)[C@H]1C5 [Naloxone benzoylhydrazone]	113%	
CNC1(c2ccccc2Cl)CCCCC1=O (centres undefined)	88.3%	
CC(C)CC(N(C)C)C1(c2ccc(Cl)cc2)CCC1 (centres undefined)	84.5% and 87.2%	
CC(C)CC(N(C)C)C1(c2ccc(Cl)cc2)CCC1 (centres undefined) [Sibutramine]	91.8 ± 24%	
CC(C)CC(N(C)C)C1(c2ccc(Cl)cc2)CCC1 (centres undefined) [Sibutramine HCl]	65.9%	
NC(N)=NOCC[C@H](N)C(=O)O	101%	
NC(N)=NOCC[C@H](N)C(=O)O [L-Canavanine]	89.7%	
NC(N)=NOCC[C@H](N)C(=O)O [L-Canavanine sulfate]	110%	
N[C@@H](Cn1oc(=O)[nH]c1=O)C(=O)O [(+)-Quisqualic acid]	81.3%	
C[C@]12CC[C@H]3[C@@H](CC[C@]4(O)C[C@@H](O)CC[C@]34C=O)[C@@]1(O)CC[C@@H]2C1=CC(=O)OC1 [Strophanthidin]		78.6%
C#CCN(C)C(C)Cc1ccccc1 (centres undefined) [Deprenyl HCl]	90.2 ± 8%	
C[N+]1(CCC(C(N)=O)(c2ccccc2)c2ccccc2)CCCCC1	103%	
S=C(NC1CCCCC1)N1CCC(c2cnc[nH]2)CC1 [Thioperamide maleate]	105 ± 14%	
O=C([O-])Cc1ccccc1.[Na+] [Sodium Phenylacetate]	137%	
CC1=NCCc2c1[nH]c1cc(O)ccc21 [Harmalol hydrochloride dihydrate]	111%	
CC1=NCCc2c1[nH]c1cc(O)ccc21 [Harmalol]		54.5%
C=C[C@H]1CN2CC[C@H]1C[C@H]2[C@H](O)c1ccnc2ccccc12	120%	
COc1ccc2c(c1)[C@]13CCCC[C@@H]1[C@H](C2)N(C)CC3 [Dextromethorphan]	95.1%	
